Test results from PubChem BioAssay AID493014 (National Center for Advancing Translational Sciences (NCATS), 2011).
The list shows a part of the results. The main result of the screen is listed elsewhere. These columns were measured beside it and carry no call. Most of these compounds were active or inconclusive in the main read-out, so they are no random draw. Potencies come from curve fits of mixed quality, noted in brackets.

Assay: qHTS Assay to Find Inhibitors of Chronic Active B-Cell Receptor Signaling
Conditions: ABC-DLBCL IkBa-CBG/CBR reporter, luminescence ratio (green luciferase fused to IkBa over red control in TMD8 lymphoma cells), 4 h
Summary of the method: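 Concentration-response series (up to 46 uM) were applied to TMD8 dual-reporter cells for 4 h at 37C with doxycycline. Green/red ratio, after filter-overlap correction, defined %Activity; red signal alone was normalised to basal cells and zero luminescence.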

[1] = measured here: CBR red luminescence, cell number
[2] = measured here: IkBa-CBG green luminescence

Compound	AC50 [1]	AC50 [2]
COc1ccc(NC(=O)CN2C(=O)c3ccccc3Sc3ccc(C(=O)N4CCOCC4)cc32)c(OC)c1	3.98 µM [falling, single point]	–
CC(C(=O)NC(C)(C)C)N(C(=O)CS(=O)CC(=O)Nc1ccc(F)cc1)c1ccccc1F (centres undefined)	7.08 µM [rising, full curve, poor fit]	–
CC(=O)Nc1cc(C(=O)N2CCCC2)ccc1Sc1ccc(Cl)cc1	32.6 µM [falling, single point]	–
Nn1c(SCC(=O)Nc2cccc(C(F)(F)F)c2)nncc1=O	3.98 µM [falling, partial curve, poor fit]	–
Oc1ccccc1C1N=C(c2ccccc2)NC(c2ccccc2)=N1	29.1 µM [falling, single point]	–
CCN1C(=O)C(=O)N(CC(=O)Nc2ccccc2OC(F)F)C1=O	0.731 µM [falling, partial curve, poor fit]	–
CC(C)CC(=O)NC(=S)Nc1ccccn1	–	29.1 µM [falling, single point]
Cc1ccc2c(c1C)NC(C(=O)O)C1CC=CC21 (centres undefined)	7.31 µM [falling, partial curve, poor fit]	–
CCNc1nc(NC(C)(C)C)nc(N2CCCC2)n1	14.6 µM [rising, partial curve]	–
CC(C)[C@H](NC(=O)c1ccc(Cl)cc1Cl)C(=O)NNc1cccc(C(=O)O)c1	18.4 µM [falling, single point]	–
CCOC(=O)C1CCN(S(=O)(=O)c2c(Cl)ccc3nonc23)CC1	2.51 µM [rising, partial curve, poor fit]	3.16 µM [falling, partial curve]
CCCCN=C1NC(=O)C(CC(=O)NCCc2ccc(OC)cc2)S1 (centres undefined)	–	29.1 µM [rising, partial curve, poor fit]
O=C(c1cc2cc(Br)ccc2s1)N1CCOCC1	12.6 µM [rising, single point]	–
COc1ccc(CNc2nc3nc(C)c(Cl)c(=O)n3[nH]2)cc1	35.5 µM [falling, single point]	–
NC(=O)C(C(=O)/C=C/c1ccc(Cl)cc1)=C1SCCS1	11.2 µM [falling, single point]	–
CCC(=O)N1CCN(c2ccc(Cl)cc2NC(=O)Cc2ccc(Cl)cc2)CC1	29.1 µM [falling, single point]	25.9 µM [rising, partial curve, poor fit]
c1cc2c(cc1C1CCCCC1)c1c3n2CCN=C3CCC1	25.9 µM [rising, single point]	–
Cc1cc(NC(=O)COC(=O)c2ccc(S(=O)(=O)N3CCCc4ccccc43)cc2)no1	12.6 µM [rising, partial curve]	20 µM [falling, single point]
O=C(NCCCn1ccnc1)C1CCN(S(=O)(=O)c2cc([N+](=O)[O-])ccc2Cl)CC1	6.51 µM [rising, full curve, poor fit]	–
COC(=O)c1c(NC(=O)c2cnccn2)sc2c1CCC2	2.91 µM [rising, full curve]	–

Compound	AC50 [1]	AC50 [2]
Cc1onc(-c2c(Cl)cccc2Cl)c1-c1nc2cc(Cl)ccc2c(=O)o1	0.251 µM [falling, full curve, poor fit]	–
CC(C)=CCCC(C)CN1CCC(n2nccc2NC(=O)c2ccc3c(c2)OCO3)CC1 (centres undefined)	0.562 µM [falling, full curve]	–
COc1cccc2c1C(=O)O/C2=C/c1ccc2c(c1)OCO2	0.326 µM [rising, full curve, poor fit]	–
COc1cc(/C=N/OCC(=O)Nc2cc(C)on2)ccc1OCc1ccccc1	1.16 µM [rising, partial curve, poor fit]	–
Cc1ccc(NC(=S)N/N=C/c2ccc([N+](=O)[O-])s2)cc1	6.51 µM [rising, partial curve, poor fit]	–
Cn1c(C(=O)N2CCc3ccccc3C2)cc2oc3ccccc3c21	0.82 µM [rising, partial curve, poor fit]	–
O=C1N[C@H]2CC=C[C@H]2Nc2ccccc21	29.1 µM [rising, single point]	18.4 µM [falling, partial curve]
O=C(O)C1CCN(C(=O)CSc2nc3ccccc3c(=O)n2-c2ccc(Cl)cc2)CC1	35.5 µM [falling, single point]	–
Cc1ccc(CNC(=O)C(N=C2NS(=O)(=O)c3ccccc32)C(C)C)cc1 (centres undefined)	32.6 µM [falling, single point]	–
COCCn1nnnc1C(c1cccs1)N1CCN(c2cc(C)ccc2C)CC1 (centres undefined)	18.4 µM [falling, single point]	–
CCc1nc(SCc2ccc([N+](=O)[O-])cc2)n[nH]1	9.2 µM [rising, partial curve, poor fit]	–
COc1ccc(N2CCN(CCCNC(=O)c3cc(Nc4ccccc4OC)nc4ccccc34)CC2)cc1	–	35.5 µM [rising, partial curve, poor fit]
c1ccc(CCNc2nc3ccccc3n3nnnc23)cc1	6.51 µM [falling, partial curve]	–
Oc1ccc(-c2cnc(-c3ccc(O)cc3)nc2)cc1	14.1 µM [falling, partial curve]	–
COc1ccc2cc3c(N)nn(C(=O)c4ccc(Cl)c([N+](=O)[O-])c4)c3nc2c1	0.651 µM [falling, full curve]	–
CN(CC1COc2ccccc2O1)C(=O)c1cc(COc2c(F)cccc2F)on1 (centres undefined)	5.62 µM [rising, single point]	–
CSc1nc2nc3c(cc2c(=O)n1-c1ccc(C)cc1)COC(C)(C)C3	35.5 µM [rising, partial curve, poor fit]	–
CC1CCN(CCCNC(=O)c2ccc3c(Cl)c4c(nc3c2)CCCC4)CC1	10 µM [falling, single point]	–
c1cnn(Cc2cnc(N3CCOCC3)s2)c1	20 µM [rising, single point]	–
O=C(Nc1nnc(Cc2ccccc2)s1)C1CCC1	1.12 µM [rising, full curve, poor fit]	–

Whole records from above:
CC(=O)Nc1cc(C(=O)N2CCCC2)ccc1Sc1ccc(Cl)cc1 as listed: AC50 [1]: 32.6 µM [falling, single point]
CC(C)CC(=O)NC(=S)Nc1ccccn1 as listed: AC50 [2]: 29.1 µM [falling, single point]
